These results are taken from patent publication US8058243B2, “Method for treating a brain cancer with ifenprodil” (HSC Research and Development Limited Partnership, priority 2006, dated 2011).

This experiment has as its system murine neural precursor cells (neurosphere cultures). Nature of the experiment: HTS of LOPAC library against secondary neurosphere cultures, MTT proliferation assay at 3 μM, day 7 (z score, P value). It is filed as cell-based, mouse.

For the molecule `Cl.Clc1ccc(N2CCN(Cc3c[nH]c4ncccc34)CC2)cc1` [L-745,870 hydrochloride], the Activity result was “yes”.

As for `COc1ccc(CC(C)NCC(O)c2ccc(O)c(NC=O)c2)cc1` (stereo not drawn) [Formoterol], the “Z Score” value is listed as −0.8379 and the Z score was −0.838.
